In article doi:10.1101/2021.11.19.469163:

Key:
[1] = target: T1, ARL3::HA::YFP (C. reinhardtii) (UniProt A8ISN6); assay: co-IP
T1 sequence: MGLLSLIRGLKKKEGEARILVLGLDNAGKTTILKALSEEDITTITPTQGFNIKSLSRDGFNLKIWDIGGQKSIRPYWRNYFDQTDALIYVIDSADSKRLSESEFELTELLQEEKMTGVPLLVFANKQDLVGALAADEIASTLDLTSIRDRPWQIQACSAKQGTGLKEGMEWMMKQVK

[2] = target: T1, ARL3::HA::YFP (C. reinhardtii); assay: co-IP; remark: listed apart in the source
[3] = target: T2, ARL3^Q70L::HA::YFP (C. reinhardtii) (UniProt A8ISN6); assay: co-IP
T2 sequence: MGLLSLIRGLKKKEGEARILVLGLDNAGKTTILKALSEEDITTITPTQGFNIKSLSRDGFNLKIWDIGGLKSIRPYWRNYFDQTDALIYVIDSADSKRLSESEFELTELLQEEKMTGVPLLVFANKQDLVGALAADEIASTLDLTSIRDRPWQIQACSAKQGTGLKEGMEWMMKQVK

[4] = target: T3, ARL3^T30N::HA::YFP (C. reinhardtii) (UniProt A8ISN6); assay: co-IP
T3 sequence: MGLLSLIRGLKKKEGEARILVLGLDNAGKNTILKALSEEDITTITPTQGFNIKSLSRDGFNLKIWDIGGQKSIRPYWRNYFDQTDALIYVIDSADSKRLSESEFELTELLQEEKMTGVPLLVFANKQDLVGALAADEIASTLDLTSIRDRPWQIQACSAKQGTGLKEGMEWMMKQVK

[5] = target: T2, ARL3^Q70L::HA::YFP (C. reinhardtii); assay: co-IP; remark: listed apart in the source
[6] = target: T1, ARL3::HA::YFP (C. reinhardtii); assay: co-IP; remark: listed apart in the source
[7] = target: T2, ARL3^Q70L::HA::YFP (C. reinhardtii); assay: co-IP; remark: listed apart in the source
[8] = target: MBP::BBS1 (C. reinhardtii); assay: pull-down
[9] = target: MBP::BBS5 (C. reinhardtii); assay: pull-down

With phospholipase D (enzyme) the binding [1] was “no binding (only in the presence of GDP)”, the binding [2] was “binds” and the binding [3] was “binds”. For the same molecule, the binding [4] was “no binding”.

In the case of BBS7, the binding [5] is reported as “no binding (only in cell body extracts)”, the binding [6] is reported as “no binding (only in the presence of GDP)” and the binding [7] is reported as “no binding (only in cell body extracts)”. For the same molecule, the binding [2] was “binds”, the binding [3] was “binds” and the binding [4] was “no binding”.

IFT38 was tested, and the binding [1] was “no binding”.

BBS1 was tested, and the binding [5] was “no binding (only in cell body extracts)”, the binding [6] was “no binding (only in the presence of GDP)” and the binding [7] was “no binding (only in cell body extracts)”. The binding [2] was “binds”, the binding [3] was “binds” and the binding [4] was “no binding”.

In the case of IFT22, the binding [5] is reported as “no binding”, the binding [7] is reported as “no binding” and the binding [2] is reported as “no binding”. The binding [3] was “no binding” and the binding [4] was “no binding”.

With BBS8 the binding [5] was “no binding (only in cell body extracts)”, the binding [6] was “no binding (only in the presence of GDP)” and the binding [7] was “no binding (only in cell body extracts)”. The binding [2] was “binds”, the binding [3] was “binds” and the binding [4] was “no binding”.

With BBS4 the binding [5] was “no binding (only in cell body extracts)”, the binding [6] was “no binding (only in the presence of GDP)” and the binding [7] was “no binding (only in cell body extracts)”. For the same molecule, the binding [2] was “binds”, the binding [3] was “binds” and the binding [4] was “no binding”.

In the case of IFT70, the binding [5] is reported as “no binding”, the binding [7] is reported as “no binding” and the binding [2] is reported as “no binding”. For the same molecule, the binding [3] was “no binding” and the binding [4] was “no binding”.

BBS5 was tested, and the binding [5] was “no binding (only in cell body extracts)”, the binding [6] was “no binding (only in the presence of GDP)” and the binding [7] was “no binding (only in cell body extracts)”. For the same molecule, the binding [2] was “binds”, the binding [3] was “binds” and the binding [4] was “no binding”.

B1: ARL3^Q70L (bacterially expressed) (protein, UniProt A8ISN6 1-177)
chain: MGLLSLIRGLKKKEGEARILVLGLDNAGKTTILKALSEEDITTITPTQGFNIKSLSRDGFNLKIWDIGGLKSIRPYWRNYFDQTDALIYVIDSADSKRLSESEFELTELLQEEKMTGVPLLVFANKQDLVGALAADEIASTLDLTSIRDRPWQIQACSAKQGTGLKEGMEWMMKQVK
For B1, the binding [8] was “binds” and the binding [9] was “binds”.

B2: ARL3^T30N (bacterially expressed) (protein, UniProt A8ISN6 1-177)
chain: MGLLSLIRGLKKKEGEARILVLGLDNAGKNTILKALSEEDITTITPTQGFNIKSLSRDGFNLKIWDIGGQKSIRPYWRNYFDQTDALIYVIDSADSKRLSESEFELTELLQEEKMTGVPLLVFANKQDLVGALAADEIASTLDLTSIRDRPWQIQACSAKQGTGLKEGMEWMMKQVK
With B2 the binding [8] was “no binding” and the binding [9] was “no binding”.

Where two headings read alike, the source gives them in different places. These are yes or no findings as the source states them, for the method shown. For some of these results: Binding calls can cover weak binding; strength is not graded here. For some of these results: Binding seen in cells or lysates may run through a third protein. For some of these results: Sequences can lack the tags named with a protein.
